Publication PMC4971335
Results are given in words; binding and its absence hold for the method and conditions named. Binding seen in cells or lysates may run through a third protein. A yes stands for co-enrichment or nearness to the bait. Other partners may have been found. Sequences can lack the tags named with a protein.

By UniProt entry, the sequences of proteins in these tests, tags left out.
UniProt Q6PEC4: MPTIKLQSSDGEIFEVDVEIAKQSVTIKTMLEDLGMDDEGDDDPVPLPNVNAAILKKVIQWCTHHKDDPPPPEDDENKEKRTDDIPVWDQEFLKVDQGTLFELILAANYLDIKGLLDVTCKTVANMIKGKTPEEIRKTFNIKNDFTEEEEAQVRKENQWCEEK

T1: glutathione-S-transferase-fused AIP p.R304* mutant (human) (UniProt O00170)
T1 sequence: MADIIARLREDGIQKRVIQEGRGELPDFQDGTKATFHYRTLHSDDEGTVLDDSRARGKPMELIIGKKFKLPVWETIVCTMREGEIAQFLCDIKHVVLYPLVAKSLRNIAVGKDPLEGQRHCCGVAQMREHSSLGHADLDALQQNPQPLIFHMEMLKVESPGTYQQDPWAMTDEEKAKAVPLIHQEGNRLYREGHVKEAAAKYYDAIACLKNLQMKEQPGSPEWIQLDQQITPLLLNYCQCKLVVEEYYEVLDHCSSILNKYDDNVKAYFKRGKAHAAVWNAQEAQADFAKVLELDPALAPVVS

T2: glutathione-S-transferase-fused wild-type aryl hydrocarbon receptor interacting protein (AIP) (human) (UniProt O00170)
T2 sequence: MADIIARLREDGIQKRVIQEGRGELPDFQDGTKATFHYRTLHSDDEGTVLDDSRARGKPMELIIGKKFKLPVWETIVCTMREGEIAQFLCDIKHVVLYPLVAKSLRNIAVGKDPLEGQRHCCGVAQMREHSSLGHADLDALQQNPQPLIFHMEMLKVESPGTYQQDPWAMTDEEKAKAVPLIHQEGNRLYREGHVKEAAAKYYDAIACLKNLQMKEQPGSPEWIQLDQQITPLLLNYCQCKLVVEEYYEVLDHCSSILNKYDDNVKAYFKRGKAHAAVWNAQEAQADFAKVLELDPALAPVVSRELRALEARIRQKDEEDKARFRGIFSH


Assays:
[1] = target: T1, glutathione-S-transferase-fused AIP p.R304* mutant (human); assay: affinity purification with mass spectrometry; pull-down from rat GH-secreting GH3 cells with glutathione-S-transferase-fused WT and mutant AIP as baits, followed by quantitative mass spectrometry; only the target purified
[2] = target: T2, glutathione-S-transferase-fused wild-type aryl hydrocarbon receptor interacting protein (AIP) (human); assay: as above

| binding [1] | binding [2] | Molecule |
| --- | --- | --- |
| binds | binds | SKP1 (from GH3 cells) (from UniProt Q6PEC4 1-163) |
| binds | binds | F-box containing protein FBXO3 (from GH3 cells) (protein, UniProt D4ABP9 1-480) MAAVEAETGLLTLESLPTDPLLLILSFVDYRDLINCCYVSRRLSQLSTHDPLWRRHCKKYWLITEEEKARKNQCWKSLFIATYSDVGRYINHYAAIKKAWDDLKKYLEPRCPRMVLSLKEGAREEDLDAVEAQIGCKLPDDYRCSYRIHNGQKLVVPGLLGSMALSNHYRSEDLLDVDTAAGGFQQRQGLKYCLPLTFCIHTGLSQYIAVEAAEGRNKNEVFYQCPDQMARNPAAIDMFIIGATFTDWFTSYVNNVVSGGFPIIRDQIFRYIHDPECVATTGDITVSVSTSFLPELSSVHPPHYFFTYRIRIEMSRDALPEKACQLDSRYWRITNAKGDVEEVQGPGVVGEFPIISPGRIYEYTSCTTFSTTSGYMEGYYTFHFLYFKDKVFNVAIPRFHMACPTFRVSIARLEMGPDEYEEMEEEAEEEEEEENDDSADMDESDESDEDENESDEGEGEERRRRVFDVPIRRRRCSRLF |
